Legend:
Assay in all cases: Antiproliferative MTT assay
Assay type in all cases: cell-based, human
Details in all cases: read-out: cisplatin IC50 [95% confidence interval]; 72 h
HeLa = system: HeLa
Procedure: (§1) For the determination of the antiproliferative properties of the prepared extract and selected alkaloids (isopteropodine, mitraphylline, and uncarine D), an MTT assay was applied on our […] cell panel (see Table S4). […] All were maintained in a minimal essential medium completed with 10% fetal bovine serum, 1% non-essential amino acids, and 1% penicillin–streptomycin at 37 °C in a humidified atmosphere containing 5% CO2. All cell lines were purchased from the European Collection of Cell Cultures (Salisbury, UK), except for SiHa and C33A, which were from the American Tissue Culture Collection, LGC Standards GmbH (Wesel, Germany). Cell culture media and supplements were obtained from Lonza Group Ltd. (Basel, Switzerland). Cells were seeded into 96-well plates (C33A 10,000/well, all others 5000/well); after overnight incubation, the test substances were added and incubated for another 72 h under cell-culturing conditions. Uncaria tomentosa extract and the alkaloids were tested in the 1–90 μg/mL and 1–30 μM ranges, respectively. Finally, 20 μL of 5 mg/mL MTT solution was added to each well and incubated for 4 h; the medium was discarded, and the precipitated formazan crystals were dissolved in DMSO for 60 min with shaking. The absorbance was determined using a microplate reader (SPECTROstar Nano, BMG Labtech GmbH). Two independent experiments were performed with five parallels for each condition. Cisplatin, a clinically used anticancer agent (Ebewe GmbH, Unterach, Austria), was included as a reference compound. Calculations were conducted using the GraphPad Prism 10.0 software (GraphPad Software Inc., San Diego, CA, USA).
(§2) Table S4 – Antiproliferative properties of Uncaria tomentosa extract, three natural products (isopteropodine, mitraphylline, and uncarine D) and the
(§3) reference agent cisplatin.
(§4) Cell line Uncaria tomentosa isopteropodine mitraphylline uncarine D [95% confidence
(§5) 1: The highest applied concentration was 90 μg/mL and 30 μM for the extract and the pure natural products, respectively.
(§6) 2: Inhibitions less than 20% compared to the untreated control were regarded as negligible and were not given numerically.

MDA-MB-231 = system: MDA-MB-231
Procedure: as §1, §2, §3, §4, §5, §6

A2780 = system: A2780
Procedure: as §1, §2, §3, §4, §5, §6

MCF7 = system: MCF7
Procedure: as §1, §2, §3, §4, §5, §6

N.N.[Cl][Pt][Cl] [cisplatin, reference compound]
IC50 (HeLa): 12.1 µM
IC50 (MDA-MB-231): 26 µM
IC50 (A2780): 5.27 µM
IC50 (MCF7): 8.34 µM

Source: PMC11597817, “Modulation of Multispecific Transporters by Uncaria tomentosa Extract and Its Major Phytoconstituents” (Pharmaceutics, 2024)
